These results are taken from patent US20170049847A1.

No constants are given. Whether binding was seen depends on the method and setting. A result given as binding can be weak or reduced; the word gives no strength.

The assay deals with TNFR. The assay is described as follows: ELISA, peptide coated on plate, soluble receptor added, anti-human IgG-HRP, OD 450 nm. On the technique in general: ELISA stands for enzyme-linked immunosorbent assay.
In the case of ACFTRTSHAC [peptide of SEQ ID NO: 2], the binding result was “binds”. Under ACDGRTQALC [peptide of SEQ ID NO: 3] stands “binds”. Take ACRSAIGRPC [peptide of SEQ ID NO: 1]: the binding result is on record as “binds”.
